# Results from one PubChem assay

Data taken from PubChem BioAssay AID912, deposited by NCATS (2007).

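Uptake of anthrax lethal toxin into cultured cells, read by FRET (460/530 nm ratio) and reported from the 460 nm channel; the cell line is not named here.
Each compound was tested as a concentration series from about 0.0005 to 40 µM.
The number is the fitted AC50 of the 460 nm signal alone; lower values mean a more potent effect. A falling signal goes with compounds filed as inhibitors or cytotoxic, a rising one with activators or fluorescent compounds (inferred from the filed classes).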

Values are in µM.
Common to all entries: measured here: 460 nm channel.
This is a side read-out of the assay, for part of the compounds, not drawn at random.
Potencies fitted to partial, single-point or poorly fitting curves are rough.
The first word of each remark tells which way the curve ran; it can be opposite to the aim of the assay.

Compound	AC50 (µM)	curve
Fc1ccccc1Cn1nnc2c(-n3ccnc3)ncnc21	0.1	rising, full curve, poor fit
CCOc1ccc(S(=O)(=O)N2CCCCC2)c2ccccc12	12.59	falling, partial curve
O=C(O)CCn1c(C(=O)O)cc2sccc21	25.12	rising, single point
CC(=O)c1cnc2nc(C)nn2c1C	0.1	falling, partial curve, poor fit
CC(C)N(CCNC(=O)C1CCN(S(=O)(=O)N2CCOCC2)CC1)Cc1ccccc1	12.59	falling, partial curve, poor fit
CCC(CC)C(=O)Nc1nnc(SCC(=O)N2CCN(c3ccccc3OC)CC2)s1	31.62	rising, single point
CCn1c(=O)cc(C(=O)OC)sc1=Nc1ccc(F)c(F)c1	31.62	falling, single point
CN(C)c1ncc2nc(-c3ccc(Cl)cc3)c(=O)n(C)c2n1	10	rising, partial curve
COCCn1c(=O)c(CCc2ccccc2)nc2cnc(Oc3ccccc3)nc21	10	rising, single point
BrC/C=C/CBr	0.1995	falling, full curve, poor fit
CCNc1ncc2nc(C)c(=O)n(C[C@H]3CCCO3)c2n1	10	rising, single point
O=C(O)c1cc(CN2CCOCC2)oc1-c1ccccc1	31.62	rising, single point
Cc1cnc(NC(=O)CSc2ncc(-c3ccccc3)n2Cc2ccco2)s1	31.62	falling, partial curve
O=C(Oc1cccc2cccnc12)c1ccc2c(c1)OCCO2	0.1	rising, full curve, poor fit
Cn1c(CSc2nc3ccc(Br)cc3[nH]2)nc2ccccc21	31.62	falling, single point
CSc1cccc(NC(=O)CN(c2ccc(C)cc2C)S(C)(=O)=O)c1	19.95	falling, single point
Nc1nc(N)c2nc(-c3ccccc3)c(N)nc2n1	6.31	rising, partial curve, poor fit
CC(C)CCn1c(CN2CCN(Cc3ccccc3)CC2)nc2c1c(=O)[nH]c(=O)n2C	10	falling, single point
O=C(O)c1ccccc1-c1c2cc(Br)c(=O)cc-2oc2[c]([Hg])c(O)c(Br)cc12	0.02512	rising, full curve
C[C@@H]1OC2C3=C(C(=O)[C@H]4O[C@@H]4[C@H]3O)[C@@H]1[C@H]1[C@H](C)OC=C3[C@H](O)[C@H]4O[C@H]4/C(=N\OCc4ccccc4)[C@@]321	3.162	rising, single point
Fc1cccc(CSc2ncnc3c2oc2ccccc23)c1	10	rising, single point
Nc1nc(Cl)nc2c1ncn2[C@@H]1O[C@@H](CO)[C@@H](O)[C@H]1O	31.62	rising, single point
CN1CCN(C(c2cccc(C(F)(F)F)c2)c2nnnn2Cc2ccccc2)CC1 (stereo unspecified)	0.005012	falling, full curve, poor fit
Clc1ccc2nc3ccccn3c2c1	3.162	falling, full curve
COc1cccc(-c2noc(-c3cccs3)n2)c1	0.003981	falling, full curve, poor fit
CCOC(=O)C1=C(C)NC(=O)NC1/C=C/c1ccccc1 (stereo unspecified)	0.003162	rising, full curve, poor fit
Cc1ccc(N(C=NC#N)CC(=O)N2CCN(c3ccccc3)CC2)cc1	3.981	falling, full curve
Cc1cc(=O)oc2cc(OCc3ccc(S(=O)(=O)N4CCOCC4)cc3)ccc12	5.012	rising, full curve
O=C1NC(=O)[C@]2(Cc3ccccc3N3CCN(c4ccccc4)CC32)C(=O)N1c1ccccc1 (stereo partly specified)	0.02512	rising, full curve, poor fit
CC(=O)N1CCc2c(sc(NC(=O)c3ccc4c(c3)OCCO4)c2C#N)C1	15.85	falling, partial curve, poor fit
COC(=O)C1=C(C)NC(=O)C1(Nc1nccs1)C(F)(F)F (stereo unspecified)	1.585	falling, full curve, poor fit
O=C(NCCN1CCc2ccccc2C1)Nc1ccc(F)cc1	19.95	falling, single point
CC(NC(=O)Cn1ccsc1=N)C12CC3CC(CC(C3)C1)C2 (stereo unspecified)	1.259	rising, full curve, poor fit
O=C(CN1CCOCC1)OCCCC1CCCCC1	0.07943	falling, full curve
Cc1cccc(-n2c(N)c(C(=O)NCCN3CCOCC3)c3nc4ccccc4nc32)c1	12.59	rising, partial curve
O=C(C1CCN(S(=O)(=O)c2ccc3ccccc3c2)CC1)N1CCN(c2ncccn2)CC1	31.62	falling, single point
COc1ccc(-c2nc(CS(=O)CC(=O)N3CCC4(CC3)OCCO4)c(C)o2)cc1 (stereo unspecified)	25.12	rising, single point
Cc1ccc(Nc2nc(CSc3nnc(-c4cccs4)o3)cs2)cc1	10	falling, single point

The last 2 entries again:

COc1ccc(-c2nc(CS(=O)CC(=O)N3CCC4(CC3)OCCO4)c(C)o2)cc1 (stereo unspecified) gave AC50 25.12 µM (rising, single point).
Cc1ccc(Nc2nc(CSc3nnc(-c4cccs4)o3)cs2)cc1 gave AC50 10 µM (falling, single point).